PMC12635394, “UBE2O-mediated ubiquitylation directs cytoplasmic CTNNA1 to promote cell-to-ECM adhesions” (EMBO Reports, 2025)
Results are given in words; binding and its absence hold for the method and conditions named. Binding seen in cells or lysates may run through a third protein. Binding can be weak; no strength is given. Tags and fused reporters may be left off the sequences shown.

Target: T1, Flag-UBE2O (full length, expressed in cells) (human) (UniProt Q9C0C9)
T1 sequence: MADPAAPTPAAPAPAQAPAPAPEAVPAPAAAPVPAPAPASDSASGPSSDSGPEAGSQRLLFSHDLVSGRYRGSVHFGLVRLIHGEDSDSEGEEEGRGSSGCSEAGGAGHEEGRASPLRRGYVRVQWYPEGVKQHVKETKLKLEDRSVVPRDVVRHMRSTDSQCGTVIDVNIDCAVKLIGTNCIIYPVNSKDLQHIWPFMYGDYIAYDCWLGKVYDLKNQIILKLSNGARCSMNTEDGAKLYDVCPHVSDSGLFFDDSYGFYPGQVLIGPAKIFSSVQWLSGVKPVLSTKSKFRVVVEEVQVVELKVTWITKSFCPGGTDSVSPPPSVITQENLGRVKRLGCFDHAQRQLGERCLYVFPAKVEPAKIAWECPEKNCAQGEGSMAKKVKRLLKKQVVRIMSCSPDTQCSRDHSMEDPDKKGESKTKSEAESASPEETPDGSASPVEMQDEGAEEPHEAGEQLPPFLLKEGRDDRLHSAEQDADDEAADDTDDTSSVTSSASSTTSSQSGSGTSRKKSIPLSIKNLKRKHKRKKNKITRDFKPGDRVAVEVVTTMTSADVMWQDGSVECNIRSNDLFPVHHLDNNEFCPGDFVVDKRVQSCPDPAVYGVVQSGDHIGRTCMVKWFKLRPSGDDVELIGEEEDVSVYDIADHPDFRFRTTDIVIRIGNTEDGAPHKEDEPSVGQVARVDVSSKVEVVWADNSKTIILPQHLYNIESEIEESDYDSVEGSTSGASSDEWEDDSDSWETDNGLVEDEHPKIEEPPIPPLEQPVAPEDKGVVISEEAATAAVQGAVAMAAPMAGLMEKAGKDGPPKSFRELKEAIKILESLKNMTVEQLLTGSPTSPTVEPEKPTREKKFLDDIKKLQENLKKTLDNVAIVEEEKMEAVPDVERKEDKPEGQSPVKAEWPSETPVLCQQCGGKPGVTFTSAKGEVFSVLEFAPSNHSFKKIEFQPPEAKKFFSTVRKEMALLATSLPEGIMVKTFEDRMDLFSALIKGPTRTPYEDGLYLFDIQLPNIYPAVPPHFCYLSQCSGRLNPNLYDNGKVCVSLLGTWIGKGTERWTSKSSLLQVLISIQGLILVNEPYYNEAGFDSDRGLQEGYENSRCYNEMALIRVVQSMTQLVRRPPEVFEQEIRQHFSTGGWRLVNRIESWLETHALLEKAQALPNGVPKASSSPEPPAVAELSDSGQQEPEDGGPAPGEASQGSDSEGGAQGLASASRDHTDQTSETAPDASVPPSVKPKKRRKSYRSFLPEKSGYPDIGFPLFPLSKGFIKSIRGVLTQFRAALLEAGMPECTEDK
Experiment: co-IP; co-expression of tagged full-length or truncated proteins in transfected cells (36 h), anti-Flag M2 affinity gel 90 min at 4 °C, immunoblot

Row | Substance | binding
1 | Myc-CTNNA1 C-terminal domain (mouse) (domain or fragment) | binds
2 | Myc-CTNNA1 N-terminal (N) domain (mouse) (domain or fragment) | binds
